{"source": "patent US20010006794A1", "about": "“SCREENING FOR MODULATORS OF BIOMOLECULES” (priority 1995, published 2001)", "key": {"[1]": {"test_system": "Salmonella typhimurium wild type", "assay_type": "cell-based", "procedure": "Preliminary characterization of the utilization of large numbers of carbon sources can be carried out using manual or automated taxonomic screening devices, such as the Biolog MT, ES, GN or GP Microplate™. Alternatively, this can be performed using commercially available components. […] Briefly, strains were swabbed onto TSA plates and grown at a permissive temperature of 30° C. for 6 hours to provide an inoculum. The inoculum (MacFarland standard ˜1 in 0.89% sterile saline solution) was prepared as per Biolog “Instructions for Use” handbook, with the exception that leucine was added to correct for mutants housed in strains which were in a leucine-deficient background. Inoculum was added to Biolog GN or ES plates and incubated at the semipermissive temperature of 35° C. overnight (˜21 hr). Carbon source utilization is read colorimetrically in a microplate reader at 600 nm. Substrates that are not used similarly by wild-type and mutant are identified. […] Typically, these steps were performed using Biolog MT plates or by using a redox indicator (such as tetrazolium violet, 0.0001%) in a minimal medium with a sole carbon source (substrate being tested), supplemented with a small amount of tryptone (0.06%) or proteose peptone (0.2%). It was possible to do this in 96-well microtiter plate format, which will be adaptable to high throughput or multichannel screening."}, "[2]": {"test_system": "Salmonella typhimurium temperature sensitive mutant gyrA212 (strain 7533)", "assay_type": "cell-based", "text": "A Salmonella typhimurium parent strain 7389 was used to form a collection of temperature sensitive mutants. […] Complementation of the mutant phenotype was done. In the case of the three mutants described in the data of this figure (gyrA202, gyrA208, gyrA212) the complemented mutants were identified to be in the A subunit of the bacterial DNA gyrase enzyme. Each mutant was altered in a different portion (see number of mutant) of the A subunit. NB. the A subunit is the protein to which flouroquinolones (e.g. ciprofloxacin, norfloxacin) interact to bring about their antimicrobial activity. […] The data are expressed as fold increases in susceptibility. A four-fold increase in susceptibility is the minimum change to be considered significant in this example.\nReferring to FIG. 1, the experiments were essentially by the methods outlined by the National Committee for Clinical Laboratory Standards (NCCLS). Bacteria were grown in Mueller-Hinton (MH) broth with agitation at 30° C.\nThe antibiotic dilution ranges used were:\nNovobiocin: Range 128-0 μg/ml. Coumermycin A1: Range 128-0 μg/ml. Ciprofloxacin: Range 0.5-0 μg/ml. Norfloxacin: Range 8-0 μg/ml. Mitomycin C: Range 8-0 μg/ml Phenylmercuric acetate: Range 32-0 μg/ml. 4-Nitroquinoline Oxide: Range 32-0 μM Rifampicin: Range 128-0 μg/ml. Gentamicin: Range 32-0 μg/ml. Streptomycin: Range 128-0 μg/ml. Cefotaxime: Range 8-0 μg/ml. Ampicillin: Range 32-0 μg/ml. […]"}}, "data": [{"compound": "O=C(O)c1cn(C2CC2)c2cc(N3CCNCC3)c(F)cc2c1=O", "note": "[ciprofloxacin]", "values": [{"measurement": "utilization of formic acid as carbon source marker", "setting": "[1]", "result": "affected"}, {"measurement": "fold increase in susceptibility", "setting": "[2]", "result": 8, "unit": "fold"}]}]}
